Measurements from publication PMC11077381.
No constants are given. Whether binding was seen depends on the method and setting. In cells and extracts the contact can be indirect. Some binding calls cover weakened binding; strength is not graded here.

Amino acid sequences for entries named in this document (tags omitted).
UniProt O00429: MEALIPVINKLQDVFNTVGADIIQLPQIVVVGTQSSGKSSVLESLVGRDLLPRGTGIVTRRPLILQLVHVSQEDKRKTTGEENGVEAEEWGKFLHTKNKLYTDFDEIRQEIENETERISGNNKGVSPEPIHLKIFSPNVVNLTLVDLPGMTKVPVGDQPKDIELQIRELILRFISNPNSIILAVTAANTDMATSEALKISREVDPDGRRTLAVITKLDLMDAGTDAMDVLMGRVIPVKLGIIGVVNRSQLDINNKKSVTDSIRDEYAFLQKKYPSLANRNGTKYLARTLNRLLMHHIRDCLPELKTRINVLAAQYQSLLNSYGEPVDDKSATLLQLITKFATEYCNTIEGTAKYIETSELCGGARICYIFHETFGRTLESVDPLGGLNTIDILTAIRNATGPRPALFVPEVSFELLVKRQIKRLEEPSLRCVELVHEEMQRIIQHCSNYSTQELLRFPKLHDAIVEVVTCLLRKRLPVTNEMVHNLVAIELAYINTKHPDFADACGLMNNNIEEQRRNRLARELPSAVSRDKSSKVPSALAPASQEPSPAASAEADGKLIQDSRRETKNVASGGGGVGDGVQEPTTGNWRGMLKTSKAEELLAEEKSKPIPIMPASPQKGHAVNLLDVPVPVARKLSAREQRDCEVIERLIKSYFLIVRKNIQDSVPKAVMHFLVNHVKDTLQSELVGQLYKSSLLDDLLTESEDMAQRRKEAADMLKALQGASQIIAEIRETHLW
UniProt Q8K1M6: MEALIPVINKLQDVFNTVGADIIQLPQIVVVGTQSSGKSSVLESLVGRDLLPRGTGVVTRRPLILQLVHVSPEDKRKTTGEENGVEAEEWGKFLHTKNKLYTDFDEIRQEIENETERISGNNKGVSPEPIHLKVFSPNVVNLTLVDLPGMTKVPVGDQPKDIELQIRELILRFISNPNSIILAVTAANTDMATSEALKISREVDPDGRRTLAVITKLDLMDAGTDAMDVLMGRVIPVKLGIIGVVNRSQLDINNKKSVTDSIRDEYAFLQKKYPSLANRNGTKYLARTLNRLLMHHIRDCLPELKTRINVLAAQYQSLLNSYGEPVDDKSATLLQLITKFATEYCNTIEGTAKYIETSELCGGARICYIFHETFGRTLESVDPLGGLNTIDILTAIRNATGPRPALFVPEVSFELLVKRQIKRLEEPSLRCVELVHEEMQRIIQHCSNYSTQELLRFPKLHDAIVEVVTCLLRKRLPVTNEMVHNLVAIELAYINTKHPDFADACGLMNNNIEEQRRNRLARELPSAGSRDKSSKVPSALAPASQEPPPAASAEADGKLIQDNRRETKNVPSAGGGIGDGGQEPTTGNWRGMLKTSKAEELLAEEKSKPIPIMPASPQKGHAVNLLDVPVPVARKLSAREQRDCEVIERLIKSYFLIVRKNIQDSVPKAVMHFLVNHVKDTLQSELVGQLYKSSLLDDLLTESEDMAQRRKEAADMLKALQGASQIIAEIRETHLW
UniProt Q13546: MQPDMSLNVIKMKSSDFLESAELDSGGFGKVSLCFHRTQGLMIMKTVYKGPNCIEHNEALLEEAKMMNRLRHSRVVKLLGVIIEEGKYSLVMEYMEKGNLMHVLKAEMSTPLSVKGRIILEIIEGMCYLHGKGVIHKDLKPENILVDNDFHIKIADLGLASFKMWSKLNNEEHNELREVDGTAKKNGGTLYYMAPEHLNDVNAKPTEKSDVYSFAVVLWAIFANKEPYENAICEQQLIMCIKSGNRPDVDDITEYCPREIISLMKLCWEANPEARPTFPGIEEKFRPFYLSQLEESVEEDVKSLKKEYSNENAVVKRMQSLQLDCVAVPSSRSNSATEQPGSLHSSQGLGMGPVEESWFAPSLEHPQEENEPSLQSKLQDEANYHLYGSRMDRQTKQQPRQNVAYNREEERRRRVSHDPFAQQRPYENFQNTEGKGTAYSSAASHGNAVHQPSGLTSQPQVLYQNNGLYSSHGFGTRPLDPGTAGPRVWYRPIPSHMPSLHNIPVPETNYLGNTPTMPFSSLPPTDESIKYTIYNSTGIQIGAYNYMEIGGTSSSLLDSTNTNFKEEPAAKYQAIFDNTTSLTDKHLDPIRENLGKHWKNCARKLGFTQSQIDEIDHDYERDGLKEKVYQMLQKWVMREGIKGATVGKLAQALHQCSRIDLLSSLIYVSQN
UniProt Q9DCC8: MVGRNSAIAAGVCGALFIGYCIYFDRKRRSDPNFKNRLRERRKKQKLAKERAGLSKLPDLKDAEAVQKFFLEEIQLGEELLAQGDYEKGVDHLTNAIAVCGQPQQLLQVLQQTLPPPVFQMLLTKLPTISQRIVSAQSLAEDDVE
UniProt Q13158: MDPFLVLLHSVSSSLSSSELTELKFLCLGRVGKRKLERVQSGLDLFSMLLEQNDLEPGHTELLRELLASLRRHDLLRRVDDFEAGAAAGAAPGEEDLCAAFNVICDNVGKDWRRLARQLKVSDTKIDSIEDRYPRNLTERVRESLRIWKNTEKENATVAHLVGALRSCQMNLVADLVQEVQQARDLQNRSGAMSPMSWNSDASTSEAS
UniProt Q14790: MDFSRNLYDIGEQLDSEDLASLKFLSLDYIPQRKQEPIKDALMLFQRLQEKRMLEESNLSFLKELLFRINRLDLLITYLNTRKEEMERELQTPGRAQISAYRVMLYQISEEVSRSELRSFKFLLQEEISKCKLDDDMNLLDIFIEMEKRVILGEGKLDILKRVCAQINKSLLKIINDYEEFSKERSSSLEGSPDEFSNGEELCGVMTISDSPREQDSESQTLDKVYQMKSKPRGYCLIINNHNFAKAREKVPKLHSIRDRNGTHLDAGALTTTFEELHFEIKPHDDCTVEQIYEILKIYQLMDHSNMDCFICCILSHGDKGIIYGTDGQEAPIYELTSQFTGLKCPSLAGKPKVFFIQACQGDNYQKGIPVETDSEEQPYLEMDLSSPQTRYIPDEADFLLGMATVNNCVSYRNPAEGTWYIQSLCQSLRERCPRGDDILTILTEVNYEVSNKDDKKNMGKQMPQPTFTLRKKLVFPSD
UniProt O89110: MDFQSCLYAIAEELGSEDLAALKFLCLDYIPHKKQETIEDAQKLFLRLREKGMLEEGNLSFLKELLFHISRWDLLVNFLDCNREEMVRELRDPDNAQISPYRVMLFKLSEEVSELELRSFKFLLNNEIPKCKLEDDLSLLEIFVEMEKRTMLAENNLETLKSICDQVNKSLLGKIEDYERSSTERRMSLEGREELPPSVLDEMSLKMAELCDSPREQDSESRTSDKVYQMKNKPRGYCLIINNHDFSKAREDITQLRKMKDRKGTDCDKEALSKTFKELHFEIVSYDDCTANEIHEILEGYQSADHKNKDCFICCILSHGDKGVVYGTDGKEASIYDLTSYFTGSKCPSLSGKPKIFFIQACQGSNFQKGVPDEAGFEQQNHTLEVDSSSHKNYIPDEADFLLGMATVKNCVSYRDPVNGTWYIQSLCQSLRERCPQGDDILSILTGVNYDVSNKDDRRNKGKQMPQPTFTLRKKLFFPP
UniProt Q8BGV8: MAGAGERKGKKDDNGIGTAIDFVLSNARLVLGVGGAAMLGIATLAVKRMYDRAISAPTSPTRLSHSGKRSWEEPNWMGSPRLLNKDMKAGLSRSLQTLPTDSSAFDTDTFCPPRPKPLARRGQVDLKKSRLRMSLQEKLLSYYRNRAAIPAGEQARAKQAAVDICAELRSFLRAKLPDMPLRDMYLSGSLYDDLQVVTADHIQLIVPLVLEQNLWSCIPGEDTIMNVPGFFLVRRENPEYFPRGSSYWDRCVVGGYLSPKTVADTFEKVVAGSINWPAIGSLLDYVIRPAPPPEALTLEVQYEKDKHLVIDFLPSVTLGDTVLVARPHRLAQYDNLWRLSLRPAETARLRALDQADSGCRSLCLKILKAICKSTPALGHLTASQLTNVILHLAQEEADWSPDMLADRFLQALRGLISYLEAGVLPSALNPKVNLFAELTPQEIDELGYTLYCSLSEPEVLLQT

What was measured:
[1] = target: dynamin-related protein 1 (Drp1), human (human (endogenous in GES-1)) (UniProt O00429); test: co-IP; endogenous proteins in GES-1 cell lysates; cells transfected with vector or shFADD and treated with vehicle or TNF-α (80 ng/ml, 8 h); Pierce Coimmunoprecipitation Kit, western blotting
[2] = target: dynamin-related protein 1 (Drp1), mouse (mouse (endogenous in primary gastric epithelial cells)) (UniProt Q8K1M6); test: co-IP; endogenous proteins in lysates of primary gastric epithelial cells from SO mice and mice with PVL (some treated with IFX or Nec-1); Pierce Coimmunoprecipitation Kit, antibody overnight at 4 °C, G/A agarose beads 3 h at room temperature, western blotting
[3] = target: T1, receptor-interacting serine/threonine-protein kinase 1 (RIPK1), mouse (mouse (endogenous in primary gastric epithelial cells)) (UniProt Q60855); test: as above
T1 sequence: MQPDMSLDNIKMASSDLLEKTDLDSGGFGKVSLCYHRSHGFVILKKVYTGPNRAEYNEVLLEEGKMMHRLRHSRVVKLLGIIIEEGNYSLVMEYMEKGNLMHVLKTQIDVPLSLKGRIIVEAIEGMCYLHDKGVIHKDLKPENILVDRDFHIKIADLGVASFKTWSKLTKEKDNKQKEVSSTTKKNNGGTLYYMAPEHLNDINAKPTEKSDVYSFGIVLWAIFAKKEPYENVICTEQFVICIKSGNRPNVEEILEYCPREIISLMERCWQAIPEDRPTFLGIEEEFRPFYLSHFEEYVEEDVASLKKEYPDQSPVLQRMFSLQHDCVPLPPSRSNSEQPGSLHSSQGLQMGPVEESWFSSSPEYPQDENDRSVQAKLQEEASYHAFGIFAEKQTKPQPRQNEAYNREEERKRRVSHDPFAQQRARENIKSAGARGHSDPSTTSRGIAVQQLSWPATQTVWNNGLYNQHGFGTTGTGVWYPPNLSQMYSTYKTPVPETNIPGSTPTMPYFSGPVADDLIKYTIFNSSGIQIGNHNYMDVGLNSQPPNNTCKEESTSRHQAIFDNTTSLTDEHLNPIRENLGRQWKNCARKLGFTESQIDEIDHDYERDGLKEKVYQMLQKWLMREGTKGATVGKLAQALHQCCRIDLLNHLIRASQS

[4] = target: receptor-interacting serine/threonine-protein kinase 1 (RIPK1), human (human (endogenous in GES-1)) (UniProt Q13546); test: co-IP; endogenous proteins in GES-1 cell lysates; cells transfected with vector or shFADD and treated with vehicle or TNF-α (80 ng/ml, 8 h); Pierce Coimmunoprecipitation Kit, western blotting
[5] = target: dynamin-related protein 1 (Drp1), mouse (mouse (endogenous in primary gastric epithelial cells)) (UniProt Q8K1M6); test: co-IP; endogenous proteins in isolated mitochondrial fractions of primary epithelial cells from SO mice and mice with PVL; anti-Drp1 or anti-Fis1 antibody, western blotting
[6] = target: TOMM20, mouse (mouse (endogenous in primary gastric epithelial cells)) (UniProt Q9DCC8); test: co-IP; endogenous proteins in lysates of primary gastric epithelial cells from SO mice and mice with PVL (some treated with IFX or Nec-1); Pierce Coimmunoprecipitation Kit, antibody overnight at 4 °C, G/A agarose beads 3 h at room temperature, western blotting

In the case of “Fas-associated protein with death domain (FADD), human (from UniProt Q13158 1-208)”, the binding [1] is reported as “binds”.

With “caspase-8, human (from UniProt Q14790 1-479)” the binding [1] was “binds”.

With “caspase-8, mouse (from UniProt O89110 1-480)” the binding [2] was “binds” and the binding [3] was “binds”.

For “dynamin-related protein 1 (Drp1), human (from UniProt O00429 1-736)”, the binding [4] was “binds”.

In the case of “dynamin-related protein 1 (Drp1), mouse (from UniProt Q8K1M6 1-736)”, the binding [3] is reported as “binds”.

“mitochondrial dynamics protein 51 (Mid51), mouse (from UniProt Q8BGV8 1-463)” was tested, and the binding [5] was “binds”.

B1: fission protein 1 (Fis1), mouse (protein, UniProt Q9CQ92 1-152)
chain: MEAVLNELVSVEDLKNFERKFQSEQAAGSVSKSTQFEYAWCLVRSKYNEDIRRGIVLLEELLPKGSKEEQRDYVFYLAVGNYRLKEYEKALKYVRGLLQTEPQNNQAKELERLIDKAMKKDGLVGMAIVGGMALGVAGLAGLIGLAVSKSKS
In the case of B1, the binding [5] is reported as “binds” and the binding [2] is reported as “binds”.

B2: mitochondrial dynamics protein 49 (Mid49), mouse (protein, UniProt Q5NCS9 1-454)
chain: MAEFSQKQRKQSGSEGLGSVVDFLLANARLVLGVGGAAVLGIATLAVKRLIDRATSPPDEDDTKGDSWKELSLLRATSPQKPQPPPAAFSQPLATGSPSPSVPVEPTPIHSPTTPKFSTIAPLCLTFQERLLAFERKHVITPEAHVTLAKQLAGDIALELQAYLRSKFPELPFGALVPGGPLYDGLQAGTAEHVRLLAPLELEPGLWSLVPGVDTVAREPRCWAVRRTQLEFHPRGCSPWDRFLVGGYLSSRVLLELLRKALSASVNWPAIGSLLGCLIWPDVASEELLLKVQHECLEFTLAVLMVVPGASTDDRLLLAWPLEGLASNLWLQDLYPVETARLRALDDQDAGTRRRLLLLLCGICRGHPALVRLGWSHLTQVVLHLGEEEVAWTEEALGERFLQALEFLVGSLEQASLPCHFNPSVNLLGNFREEEIDDIGYVLYSGLQVPESLF
In the case of B2, the binding [5] is reported as “binds”.

B3: mitochondrial fission factor (Mff), mouse (protein, UniProt Q6PCP5 1-291)
chain: MAEISRIQYEMEYTEGISQRMRVPEKLKVAPPNADLEQEFQDGVPNASVIMQVPERIVVTGNNEDISFSRPADLDLIQSTPFKPLALKTPPRVLTLSERPLDFLDLERPLPTPQSEESRAVGRLKRERSMSENAVRQNGQLVRNDSIVTPSPPQARVCPPHMLPEDGANLSSARGILSLIQSSTRRAYQQILDVLDENRRPVLRGGSAAATSNPHHDNVRYGISNLDAAIEGASDDMTVVDAASLRRQIIKLNRRLQLLEEENKERAKREMVMYSITVAFWLLNSWLWFRR
For B3, the binding [5] was “binds”.

B4: Fas-associated protein with death domain (FADD), mouse (protein, UniProt Q61160 1-205)
chain: MDPFLVLLHSLSGSLSGNDLMELKFLCRERVSKRKLERVQSGLDLFTVLLEQNDLERGHTGLLRELLASLRRHDLLQRLDDFEAGTATAAPPGEADLQVAFDIVCDNVGRDWKRLARELKVSEAKMDGIEEKYPRSLSERVRESLKVWKNAEKKNASVAGLVKALRTCRLNLVADLVEEAQESVSKSENMSPVLRDSTVSSSETP
For B4, the binding [2] was “binds” and the binding [3] was “binds”.

B5: NADPH oxidase 2 (NOX2), mouse (protein, UniProt Q61093 1-570)
chain: MGNWAVNEGLSIFVILVWLGLNVFLFINYYKVYDDGPKYNYTRKLLGSALALARAPAACLNFNCMLILLPVCRNLLSFLRGSSACCSTRIRRQLDRNLTFHKMVAWMIALHTAIHTIAHLFNVEWCVNARVGISDRYSIALSDIGDNENEEYLNFAREKIKNPEGGLYVAVTRLAGITGIVITLCLILIITSSTKTIRRSYFEVFWYTHHLFVIFFIGLAIHGAERIVRGQTAESLEEHNLDICADKIEEWGKIKECPVPKFAGNPPMTWKWIVGPMFLYLCERLVRFWRSQQKVVITKVVTHPFKTIELQMKKKGFKMEVGQYIFVKCPKVSKLEWHPFTLTSAPEEDFFSIHIRIVGDWTEGLFNACGCDKQEFQDAWKLPKIAVDGPFGTASEDVFSYEVVMLVGAGIGVTPFASILKSVWYKYCDNATSLKLKKIYFYWLCRDTHAFEWFADLLQLLETQMQERNNANFLSYNIYLTGWDESQANHFAVHHDEEKDVITGLKQKTLYGRPNWDNEFKTIASEHPNTTIGVFLCGPEALAETLSKQSISNSESGPRGVHFIFNKENF
For B5, the binding [6] was “binds”.
